Source: PubChem BioAssay AID330 (DTP/NCI, 2004)
The list is a part of this screen's results and no random one: it is rich in T/C values a quarter to a half above the control, in often repeated tests (any T/C) and in doses without a T/C. Further doses and runs are listed elsewhere. T/C is the treated group as % of the vehicle group. Some entries give survivors of the animals treated and no T/C: the source holds a T/C of zero for them, seemingly a mark for toxic or unscored doses. Some doses without a T/C left all or most animals alive at the check, yet need not have been tolerated: survival well below the control is almost never listed, so the zero probably covers shortened survival too. Counts of survivors are from the toxicity check (mostly the fifth day) where no day follows; animals may have died later. Schedule codes are those of the source, read here as Q, the interval in days (D) or hours (H), X, the number of doses. Some entries hold several experiments; their values stand side by side, smallest first. Where survival is the endpoint, the PubChem record calls one and a half times the control and up active, and a quarter to a half above the control has no call in these data; cut-offs in other NCI protocols can differ. Some T/C values carry the count of animals alive at the toxicity check (mostly the fifth day); without a count, all were alive then.

System: P388 leukemia ip, CD2F1 mice, survival T/C
Experiment: NCI In Vivo Anticancer Drug Screen. Data for tumor model P388 Leukemia (intraperitoneal) in CD2F1 (CDF1) mice
Conditions: T/C endpoint: median survival time, higher T/C = longer survival
[1] = dose: 4.0 mg/kg/injection, schedule: Q01DX009 (ip), vehicle: saline + alcohol
[2] = dose: 15.0 mg/kg/injection, schedule: Q01DX005 (ip), vehicle: Klucel (hydroxypropylcellulose) (HPC)
[3] = dose: 60.0 mg/kg/injection, schedule: Q01DX005 (ip), vehicle: Klucel (hydroxypropylcellulose) (HPC)
[4] = dose: 120.0 mg/kg/injection, schedule: Q01DX005 (ip), vehicle: Klucel (hydroxypropylcellulose) (HPC)
[5] = dose: 240.0 mg/kg/injection, schedule: Q01DX005 (ip), vehicle: Klucel (hydroxypropylcellulose) (HPC)
[6] = dose: 240.0 mg/kg/injection, schedule: Q01DX005 (ip), vehicle: saline with Tween-80
[7] = dose: 100.0 mg/kg/injection, schedule: Q01DX009 (ip), vehicle: saline with Tween-80
[8] = dose: 200.0 mg/kg/injection, schedule: Q01DX009 (ip), vehicle: saline with Tween-80
[9] = dose: 60.0 mg/kg/injection, schedule: Q01DX005 (ip), vehicle: saline with Tween-80
[10] = dose: 120.0 mg/kg/injection, schedule: Q01DX005 (ip), vehicle: saline with Tween-80

COC(=O)[C@@]12OC[C@]34[C@H]([C@@H](O)[C@@H]1O)[C@@]1(C)CC(=O)C(O)=C(C)[C@@H]1C[C@H]3OC(=O)[C@H](OC(=O)/C=C(\C)C(C)CO)[C@@H]24 (stereo partly specified)
T/C (dose: 0.5 mg/kg/injection, schedule: Q01DX009 (ip), vehicle: saline + alcohol): 143 % of control
T/C (dose: 2.0 mg/kg/injection, schedule: Q01DX009 (ip), vehicle: saline + alcohol): 126 and 145 % of control
T/C [1]: 130 % of control [4 of 6 alive]
survivor count [1]: 2 of 6

CC(C)(C)OC(=O)NC(COCc1ccccc1)C(=O)ON1C(=O)CCC1=O (stereo unspecified)
survivor count (dose: 200.0 mg/kg/injection, schedule: Q01DX005 (ip), vehicle: saline with Tween-80): 2 of 6

C=Cn1cc[n+](CC(=O)OC2CCC3C4CCC5=CC(=O)CCC5(C)C4CCC23C)c1 (stereo unspecified)
survivor count [2]: 2 of 6
survivor count [3]: 0 of 6
survivor count [4]: 0 of 6
survivor count [5]: 0 of 6

Cc1ccc(S(=O)(=O)F)cc1C(=O)O
survivor count [6]: 3 of 6

Nc1nc2nc(CBr)c(CBr)nc2c(=O)[nH]1
T/C (dose: 50.0 mg/kg/injection, schedule: Q01DX009 (ip), vehicle: saline with Tween-80): 125 % of control
T/C [7]: 127 % of control
survivor count [8]: 0 of 6

C/C(=C\Cl)COC1CCCCO1 (stereo unspecified)
T/C [8]: 127 % of control

CCC(=O)OCC(=O)[C@]1(O)Cc2c(O)c3c(c(O)c2[C@@H](OC2CC(N)C(O)C(C)O2)C1)C(=O)c1c(OC)cccc1C3=O (stereo partly specified)
T/C (dose: 0.25 mg/kg/injection, schedule: Q01DX009 (ip), vehicle: saline): 125 % of control [9 of 10 alive]
T/C (dose: 0.5 mg/kg/injection, schedule: Q01DX009 (ip), vehicle: saline): 133 % of control
T/C (dose: 1.0 mg/kg/injection, schedule: Q01DX009 (ip), vehicle: saline): 142 % of control
T/C (dose: 2.0 mg/kg/injection, schedule: Q01DX009 (ip), vehicle: saline): 149 % of control
survivor count (dose: 8.0 mg/kg/injection, schedule: Q01DX009 (ip), vehicle: saline): 10 of 10

CSc1c(N(C)C)c(=O)c1=S
survivor count [9]: 3 of 6
survivor count [10]: 3 of 6
survivor count [6]: 0 of 6

CC(=O)c1cc2cc3c4c(c2oc1=O)CCCN4CCC3
survivor count [5]: 3 of 6

CCS/C(N)=C(\C#N)C(SCC)(SCC)SCC
survivor count (dose: 200.0 mg/kg/injection, schedule: Q04DX003 (ip), vehicle: saline): 0 of 6

Cc1ccc(/C=C/C(=O)C(C)CN(C)C)cc1C (stereo unspecified)
survivor count (dose: 200.0 mg/kg/injection, schedule: Q01DX005 (ip), vehicle: saline): 2 of 6

O=C1OCC/C1=C/OS(=O)(=O)C(F)(F)F
T/C (dose: 37.5 mg/kg/injection, schedule: Q01DX009 (ip), vehicle: distilled water + Tween-80): 126 % of control
survivor count (dose: 150.0 mg/kg/injection, schedule: Q01DX009 (ip), vehicle: distilled water + Tween-80): 1 of 6 and 3 of 5

COC(=O)C(C)N(CCCl)P1(=O)OCCCN1CCCl (stereo unspecified)
T/C (dose: 120.0 mg/kg/injection, schedule: Q01DX005 (ip), vehicle: saline): 125 % of control

C1=C[N-]c2c3c(ccc2=C1)=CC=C[N-]3.O=S(=O)(O)O.[Zn+2]
survivor count (dose: 100.0 mg/kg/injection, schedule: Q04DX002 (ip), vehicle: Klucel (hydroxypropylcellulose) (HPC)): 0 of 6
survivor count (dose: 200.0 mg/kg/injection, schedule: Q04DX002 (ip), vehicle: Klucel (hydroxypropylcellulose) (HPC)): 0 of 6
survivor count (dose: 400.0 mg/kg/injection, schedule: Q04DX002 (ip), vehicle: Klucel (hydroxypropylcellulose) (HPC)): 0 of 6

O=C(NC(C(=O)O)C1CC(Cl)=NO1)OCc1ccc([N+](=O)[O-])cc1 (stereo unspecified)
T/C (dose: 25.0 mg/kg/injection, schedule: Q04DX003 (ip), vehicle: other): 125 % of control
T/C (dose: 50.0 mg/kg/injection, schedule: Q04DX003 (ip), vehicle: other): 125 % of control
T/C (dose: 100.0 mg/kg/injection, schedule: Q04DX003 (ip), vehicle: other): 140 % of control
T/C (dose: 200.0 mg/kg/injection, schedule: Q04DX003 (ip), vehicle: other): 140 % of control

C/C(=N/NC(=O)O[C@@H]1C[C@H](C)CC[C@H]1C(C)C)c1cc[c]([Sn]([CH3])([Cl])[c]2ccccc2)cc1 (stereo partly specified)
survivor count [2]: 0 of 6
survivor count [3]: 0 of 6
survivor count [4]: 0 of 6
survivor count [5]: 0 of 6

CCCCC/C([O-])=C1/C(=O)N(c2ccccc2)N=C1C.CCCCC/C([O-])=C1/C(=O)N(c2ccccc2)N=C1C.[Cu+2]
survivor count [6]: 0 of 6

O=c1c2ccccc2nc(-c2ccccc2Cl)n1/N=C/c1cccc([N+](=O)[O-])c1
survivor count (dose: 6.25 mg/kg/injection, schedule: Q01DX009 (ip), vehicle: saline with Tween-80): 5 of 6
survivor count (dose: 12.5 mg/kg/injection, schedule: Q01DX009 (ip), vehicle: saline with Tween-80): 6 of 6
survivor count (dose: 25.0 mg/kg/injection, schedule: Q01DX009 (ip), vehicle: saline with Tween-80): 6 of 6

O=CNC(Cc1ccc(N(CCCl)CCCl)cc1)C(=O)O (stereo unspecified)
T/C (dose: 4.4 mg/kg/injection, schedule: Q04DX003 (ip), vehicle: saline): 140 % of control

O=P(c1ccccc1)(c1ccccc1)c1ccccc1.O=P(c1ccccc1)(c1ccccc1)c1ccccc1.O=S(=O)(O)O.[Ni]
survivor count (dose: 50.0 mg/kg/injection, schedule: Q01DX009 (ip), vehicle: Klucel (hydroxypropylcellulose) (HPC)): 6 of 6
survivor count (dose: 100.0 mg/kg/injection, schedule: Q01DX009 (ip), vehicle: Klucel (hydroxypropylcellulose) (HPC)): 6 of 6
survivor count (dose: 200.0 mg/kg/injection, schedule: Q01DX009 (ip), vehicle: Klucel (hydroxypropylcellulose) (HPC)): 0 of 6

CCCCNC(C)[C@]1(O)Cc2c(O)c3c(c(O)c2[C@@H](OC2CC(N)C(O)C(C)O2)C1)C(=O)c1c(OC)cccc1C3=O (stereo partly specified)
T/C (dose: 0.15 mg/kg/injection, schedule: Q01DX009 (ip), vehicle: water): 127 % of control
T/C (dose: 0.31 mg/kg/injection, schedule: Q01DX009 (ip), vehicle: water): 144 % of control
T/C (dose: 0.62 mg/kg/injection, schedule: Q01DX009 (ip), vehicle: water): 135 and 148 % of control
T/C (dose: 1.25 mg/kg/injection, schedule: Q01DX009 (ip), vehicle: water): 142 % of control
survivor count (dose: 10.0 mg/kg/injection, schedule: Q01DX009 (ip), vehicle: water): 6 of 6
survivor count (dose: 20.0 mg/kg/injection, schedule: Q01DX009 (ip), vehicle: water): 2 of 6

CCCCCCC1NC1Cc1ccc(Cl)c(Cl)c1 (stereo unspecified)
survivor count [7]: 0 of 6
survivor count [8]: 0 of 6
survivor count (dose: 400.0 mg/kg/injection, schedule: Q01DX009 (ip), vehicle: saline with Tween-80): 0 of 6

CCCCCCCCCCCCCCCCCC(N)=S
survivor count (dose: 100.0 mg/kg/injection, schedule: Q01DX005 (ip), vehicle: Klucel + Tween-80): 5 of 6

C[n+]1c(-c2ccc(/C=N/NC(=O)c3cc(O)c(C(=O)N/N=C/c4ccc(-c5cn6ccccc6[n+]5C)cc4)cc3O)cc2)cn2ccccc21
survivor count [6]: 1 of 6

C1=C[N-]c2c3c(ccc2=C1)=CC=C[N-]3.C1=C[N-]c2c3c(ccc2=C1)=CC=C[N-]3.C1=C[N-]c2c3c(ccc2=C1)=CC=C[N-]3.[Co+3].[O-][Cl+3]([O-])([O-])O
survivor count [9]: 3 of 6
survivor count [10]: 0 of 6
survivor count [6]: 0 of 6
